Data as given in PubChem BioAssay AID1259254 (NCATS, 2017).
Aim: 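Genome-wide screen for genes that prevent DNA re-replication in cancer cells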 (primary screen). System: human HCT116 colorectal cancer cells. Reagent: single siRNA against human genes. Duration: 3 days. Measurement: 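Imaged Hoechst DNA stain sorts each cell into a cycle phase by DNA amount; per plate, G2 fraction set to 0% for non-targeting and 100% for GMNN siRNA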. Direction: G2 robust z-score: higher = more G2 cells, more excess DNA replication. Call rule: 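Active siRNAs have a G2 robust z of 5 or more median absolute deviations over the median, which in these data means about 38% or higher of GMNN control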.
The whole screen tested about 59,000 reagents; shown is an unselected part. About 1,550 of them (2.6%) count as active. 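G2 share is only a proxy for re-replication; each gene was hit by three separate siRNAs, and active genes were retested.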 A number with no mark means an inactive call. The numbers tell different reagents against one gene apart. Not all columns of the deposit are shown. The record does not give: the amount of reagent.

G2 robust z-score, by target gene and reagent
LOC646030: #1 1.53; #2 2.37; #3 2.41; #4 0.93; #5 2.95; #6 -0.509
EWSR1: #1 -0.8; #2 0.247; #3 1.32
UQCRBP1: #1 -0.768; #2 0.317; #3 0.293
ASTE1: #1 -1.07; #2 1.92; #3 0.758
PRR5: #1 -0.0762; #2 3.42; #3 -0.667
CHAMP1: #1 6.14 (active); #2 -0.898; #3 -0.408
POLH: #1 1.22; #2 -0.37; #3 -0.875

Entries above called active, once more:
G2 robust z-score, by target gene and reagent
CHAMP1: #1 6.14 (active)

More results follow.
G2 robust z-score, by target gene and reagent
EZHIP: #1 0.0171; #2 1.05; #3 -0.669
KY: #1 -0.83; #2 -0.511; #3 -0.535
RLF: #1 -0.737; #2 -0.57; #3 -0.196
ANP32A: #1 -0.942; #2 0.0213; #3 1.09
MED1: #1 0.347; #2 3.31; #3 -0.481
CLDN11: #1 -0.638; #2 -0.414; #3 1.14
KCNJ13: #1 0.702; #2 -0.322; #3 1.54
CLCA1: #1 0.44; #2 0.984; #3 -0.4
